Measured data: PubChem BioAssay AID1259308 (NCATS, 2017)
The whole screen tested about 59,000 reagents; below is a random part of them. Over the whole deposit, about 1,510 (2.6%) got an active call. 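Calls use total luciferase alone and ignore viability, so some active siRNAs may act by altering cell number.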 Entries without a mark were called inactive. Reagents against one gene are numbered here. Further read-outs or replicates are left out here.

- Purpose: 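Candidate targets for better recombinant protein yield in mammalian cells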 (primary screen)
- System: human HEK293 embryonic kidney cells stably expressing firefly luciferase (HEK-CMV-Luc2-Hygro)
- Reagents: single siRNA against human genes, 0.8 pmol siRNA per well
- Time to read-out: 72 h
- Read-out: 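Reporter luminescence and viable-cell signal on separate replicate plates, given as percent of non-targeting control and median/MAD z-scores, plus per-cell luciferase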
- Direction: total luciferase, z-score: higher = more reporter protein produced
- Active means: 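Active when the median/MAD z-score for overall luciferase is greater than 3; a gene was taken forward for validation with new siRNAs if at least two of its three siRNAs passed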
- Meaning of the calls: active = raised luciferase; inactive = no rise

gene | siRNA no. | total luciferase, z-score
BMP1 | 1 | -0.54
BMP1 | 2 | -0.266
BMP1 | 3 | -0.182
CNGB3 | 1 | 0.222
CNGB3 | 2 | 0.888
CNGB3 | 3 | -0.491
OR4E2 | 1 | -1.02
OR4E2 | 2 | -0.161
OR4E2 | 3 | 0.423
CRB2 | 1 | -1.32
CRB2 | 2 | 0.534
CRB2 | 3 | 0.457
KCTD9 | 1 | -0.332
KCTD9 | 2 | -1.3
KCTD9 | 3 | -0.414
CD164 | 1 | -0.246
CD164 | 2 | -0.252
CD164 | 3 | 0.371
GRB10 | 1 | 0.302
GRB10 | 2 | -1.43
GRB10 | 3 | -1.23
NARF | 1 | 0.587
NARF | 2 | -0.154
NARF | 3 | 3.63 (active)
FBXO6 | 1 | -0.175
FBXO6 | 2 | 0.951
FBXO6 | 3 | -1.66
ZPLD1 | 1 | 0.0714
ZPLD1 | 2 | -0.537
ZPLD1 | 3 | 0.12
UTP11 | 1 | -1.44
UTP11 | 2 | -1.39
UTP11 | 3 | -1.4

4 entries from above, ordered by “total luciferase, z-score”, low to high.
gene | siRNA no. | total luciferase, z-score
FBXO6 | 1 | -0.175
NARF | 2 | -0.154
NARF | 1 | 0.587
NARF | 3 | 3.63 (active)

Next results:
gene | siRNA no. | total luciferase, z-score
MALSU1 | 1 | 1.74
MALSU1 | 2 | 2.73
MALSU1 | 3 | -0.823
LARP1BP1 | 1 | -1.52
LARP1BP1 | 2 | 0.836
LARP1BP1 | 3 | 0.757
ABCB1 | 1 | 0.43
ABCB1 | 2 | 0.637
ABCB1 | 3 | 0.477
MFSD11 | 1 | 4.25 (active)
MFSD11 | 2 | 2.88
MFSD11 | 3 | 0.169
VPS35 | 1 | -3.02
VPS35 | 2 | -0.105
VPS35 | 3 | -1.04
FAM161B | 1 | 0.287
FAM161B | 2 | -0.103
FAM161B | 3 | -0.644
LYZL6 | 1 | -0.391
LYZL6 | 2 | -0.441
LYZL6 | 3 | -0.99
SLC2A7 | 1 | -0.87
SLC2A7 | 2 | -0.262
SLC2A7 | 3 | 0.916
